No constants are given. Whether binding was seen depends on the method and setting. Binding seen in cells or lysates may run through a third protein. Some entries that bind do so weakly or less than the wild type.
Key:
[1] = molecular target: E2F1-HA overexpressed in HEK293T cells (pCMVHA E2F1) (UniProt Q01094); experiment: co-IP; HEK293T cells cotransfected with AR-FL, AR3 and/or E2F1-HA, grown 48 h; lysates immunoprecipitated with an anti-AR or anti-HA antibody, western blot
[2] = molecular target: E2F1, endogenous in R1-ADR cells (human (endogenous in R1-ADR)) (UniProt Q01094); experiment: co-IP; endogenous proteins in R1-ADR cell lysates; cells infected with lentivirus encoding control shRNA, shAR3 or shAR-FL for 48 h; immunoprecipitated with an anti-AR or anti-E2F1 antibody, western blot
[3] = molecular target: T1, Rb, endogenous in R1-ADR cells (human (endogenous in R1-ADR)) (UniProt P06400); experiment: co-IP; endogenous proteins in R1-ADR cell lysates; cells infected with lentivirus encoding control shRNA, shAR3 or shAR-FL for 48 h, then treated with 10nM DHT for 2 h; immunoprecipitated with an anti-AR or anti-Rb antibody, western blot
T1 sequence: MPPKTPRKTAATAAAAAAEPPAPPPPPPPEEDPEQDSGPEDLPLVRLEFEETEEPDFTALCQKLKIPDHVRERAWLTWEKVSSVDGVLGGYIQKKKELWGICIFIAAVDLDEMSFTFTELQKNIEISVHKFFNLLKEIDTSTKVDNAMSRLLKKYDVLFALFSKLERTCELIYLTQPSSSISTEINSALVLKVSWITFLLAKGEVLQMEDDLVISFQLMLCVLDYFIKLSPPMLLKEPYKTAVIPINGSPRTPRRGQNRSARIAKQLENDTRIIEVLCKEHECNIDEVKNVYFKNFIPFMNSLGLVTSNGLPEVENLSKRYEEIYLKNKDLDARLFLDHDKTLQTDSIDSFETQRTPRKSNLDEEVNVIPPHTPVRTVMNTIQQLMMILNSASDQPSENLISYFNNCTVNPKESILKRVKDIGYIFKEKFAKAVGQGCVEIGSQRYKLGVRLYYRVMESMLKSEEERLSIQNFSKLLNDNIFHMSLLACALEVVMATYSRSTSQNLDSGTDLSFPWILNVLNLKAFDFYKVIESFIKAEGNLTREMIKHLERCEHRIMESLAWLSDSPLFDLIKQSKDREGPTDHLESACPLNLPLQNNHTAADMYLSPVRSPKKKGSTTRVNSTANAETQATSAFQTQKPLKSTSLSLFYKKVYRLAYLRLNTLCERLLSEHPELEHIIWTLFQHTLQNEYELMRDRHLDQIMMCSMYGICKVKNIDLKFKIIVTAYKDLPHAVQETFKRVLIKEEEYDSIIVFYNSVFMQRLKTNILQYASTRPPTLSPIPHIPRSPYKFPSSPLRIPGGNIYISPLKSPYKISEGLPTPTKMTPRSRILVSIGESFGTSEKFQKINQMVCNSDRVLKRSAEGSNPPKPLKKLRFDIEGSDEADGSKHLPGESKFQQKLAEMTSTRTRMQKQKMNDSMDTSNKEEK

Chains of the proteins cited; added tags and fusions are not shown. Lines headed by an entry give the natural chain unless they say otherwise; changes in a name come on top. A line that says so, or that is headed by a name, gives the form on record, which may keep a tag or linker.
UniProt Q01094: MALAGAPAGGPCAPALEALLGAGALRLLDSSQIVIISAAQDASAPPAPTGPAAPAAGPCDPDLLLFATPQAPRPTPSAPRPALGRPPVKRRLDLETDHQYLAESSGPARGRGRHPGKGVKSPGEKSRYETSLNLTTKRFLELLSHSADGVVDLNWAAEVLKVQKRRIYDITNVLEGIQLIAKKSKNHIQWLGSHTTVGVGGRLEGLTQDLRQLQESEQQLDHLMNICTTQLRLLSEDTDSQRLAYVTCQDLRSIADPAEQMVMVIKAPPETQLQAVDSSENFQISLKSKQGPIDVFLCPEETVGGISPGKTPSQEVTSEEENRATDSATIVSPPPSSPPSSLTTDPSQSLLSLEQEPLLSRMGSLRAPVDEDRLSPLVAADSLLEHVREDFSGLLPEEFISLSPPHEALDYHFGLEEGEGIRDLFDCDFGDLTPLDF
UniProt P10275: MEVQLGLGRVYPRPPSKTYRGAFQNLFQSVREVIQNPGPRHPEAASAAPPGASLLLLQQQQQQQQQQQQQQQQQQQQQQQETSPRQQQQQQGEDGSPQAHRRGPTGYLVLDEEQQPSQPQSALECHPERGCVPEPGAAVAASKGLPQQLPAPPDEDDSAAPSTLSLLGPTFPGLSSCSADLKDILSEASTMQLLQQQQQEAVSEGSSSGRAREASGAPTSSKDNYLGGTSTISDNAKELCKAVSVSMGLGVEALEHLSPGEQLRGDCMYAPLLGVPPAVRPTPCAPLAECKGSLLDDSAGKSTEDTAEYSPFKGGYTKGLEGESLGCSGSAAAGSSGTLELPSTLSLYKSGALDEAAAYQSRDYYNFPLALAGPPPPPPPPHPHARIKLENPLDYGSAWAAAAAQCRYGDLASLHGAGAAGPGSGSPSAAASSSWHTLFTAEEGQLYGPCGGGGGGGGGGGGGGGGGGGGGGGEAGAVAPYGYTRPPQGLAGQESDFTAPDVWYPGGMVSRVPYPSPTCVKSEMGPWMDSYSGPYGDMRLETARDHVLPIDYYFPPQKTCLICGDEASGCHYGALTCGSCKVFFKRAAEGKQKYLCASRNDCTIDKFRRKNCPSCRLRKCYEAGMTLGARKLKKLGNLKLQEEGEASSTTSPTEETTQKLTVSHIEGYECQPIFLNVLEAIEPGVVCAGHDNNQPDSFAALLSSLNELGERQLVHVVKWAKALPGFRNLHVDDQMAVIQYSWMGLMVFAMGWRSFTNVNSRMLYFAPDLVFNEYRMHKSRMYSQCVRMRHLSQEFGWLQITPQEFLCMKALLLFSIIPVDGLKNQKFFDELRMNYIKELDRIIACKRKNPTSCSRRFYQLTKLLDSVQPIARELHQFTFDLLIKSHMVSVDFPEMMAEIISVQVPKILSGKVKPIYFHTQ
androgen receptor splicing variant AR3 (a.k.a. AR-V7), endogenous in R1-ADR cells (P10275-3, form named): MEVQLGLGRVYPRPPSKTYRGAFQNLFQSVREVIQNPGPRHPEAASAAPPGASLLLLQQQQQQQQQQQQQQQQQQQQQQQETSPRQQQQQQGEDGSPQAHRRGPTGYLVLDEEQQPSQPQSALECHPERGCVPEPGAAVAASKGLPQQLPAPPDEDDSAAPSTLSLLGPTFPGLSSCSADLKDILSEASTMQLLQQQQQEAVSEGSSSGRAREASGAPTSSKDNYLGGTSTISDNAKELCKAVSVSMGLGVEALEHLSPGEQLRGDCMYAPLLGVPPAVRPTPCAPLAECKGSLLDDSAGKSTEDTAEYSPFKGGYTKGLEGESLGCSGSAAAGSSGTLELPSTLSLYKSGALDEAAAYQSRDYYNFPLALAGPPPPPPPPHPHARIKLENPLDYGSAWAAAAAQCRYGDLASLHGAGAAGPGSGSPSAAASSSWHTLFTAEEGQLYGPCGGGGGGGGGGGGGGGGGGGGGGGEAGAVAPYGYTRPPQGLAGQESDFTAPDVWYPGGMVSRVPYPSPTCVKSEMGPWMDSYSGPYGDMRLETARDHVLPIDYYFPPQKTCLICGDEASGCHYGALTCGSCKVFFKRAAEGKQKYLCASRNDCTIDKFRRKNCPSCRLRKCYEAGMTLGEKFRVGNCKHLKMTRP

| Substance | binding [1] | binding [2] | binding [3] |
| --- | --- | --- | --- |
| AR3 overexpressed in HEK293T cells (from UniProt P10275-3 1-644) | binds |  |  |
| AR-FL overexpressed in HEK293T cells (from UniProt P10275 1-920) | binds |  |  |
| androgen receptor full length (AR-FL), endogenous in R1-ADR cells (from UniProt P10275 1-920) |  | binds | binds |
| androgen receptor splicing variant AR3 (a.k.a. AR-V7), endogenous in R1-ADR cells (from UniProt P10275-3 1-644) |  | binds | no binding |

— publication PMC7290672
